Test [1] addresses T1, ROS1 in the BD vector (Arabidopsis thaliana), Q9SJQ6.
T1 chain: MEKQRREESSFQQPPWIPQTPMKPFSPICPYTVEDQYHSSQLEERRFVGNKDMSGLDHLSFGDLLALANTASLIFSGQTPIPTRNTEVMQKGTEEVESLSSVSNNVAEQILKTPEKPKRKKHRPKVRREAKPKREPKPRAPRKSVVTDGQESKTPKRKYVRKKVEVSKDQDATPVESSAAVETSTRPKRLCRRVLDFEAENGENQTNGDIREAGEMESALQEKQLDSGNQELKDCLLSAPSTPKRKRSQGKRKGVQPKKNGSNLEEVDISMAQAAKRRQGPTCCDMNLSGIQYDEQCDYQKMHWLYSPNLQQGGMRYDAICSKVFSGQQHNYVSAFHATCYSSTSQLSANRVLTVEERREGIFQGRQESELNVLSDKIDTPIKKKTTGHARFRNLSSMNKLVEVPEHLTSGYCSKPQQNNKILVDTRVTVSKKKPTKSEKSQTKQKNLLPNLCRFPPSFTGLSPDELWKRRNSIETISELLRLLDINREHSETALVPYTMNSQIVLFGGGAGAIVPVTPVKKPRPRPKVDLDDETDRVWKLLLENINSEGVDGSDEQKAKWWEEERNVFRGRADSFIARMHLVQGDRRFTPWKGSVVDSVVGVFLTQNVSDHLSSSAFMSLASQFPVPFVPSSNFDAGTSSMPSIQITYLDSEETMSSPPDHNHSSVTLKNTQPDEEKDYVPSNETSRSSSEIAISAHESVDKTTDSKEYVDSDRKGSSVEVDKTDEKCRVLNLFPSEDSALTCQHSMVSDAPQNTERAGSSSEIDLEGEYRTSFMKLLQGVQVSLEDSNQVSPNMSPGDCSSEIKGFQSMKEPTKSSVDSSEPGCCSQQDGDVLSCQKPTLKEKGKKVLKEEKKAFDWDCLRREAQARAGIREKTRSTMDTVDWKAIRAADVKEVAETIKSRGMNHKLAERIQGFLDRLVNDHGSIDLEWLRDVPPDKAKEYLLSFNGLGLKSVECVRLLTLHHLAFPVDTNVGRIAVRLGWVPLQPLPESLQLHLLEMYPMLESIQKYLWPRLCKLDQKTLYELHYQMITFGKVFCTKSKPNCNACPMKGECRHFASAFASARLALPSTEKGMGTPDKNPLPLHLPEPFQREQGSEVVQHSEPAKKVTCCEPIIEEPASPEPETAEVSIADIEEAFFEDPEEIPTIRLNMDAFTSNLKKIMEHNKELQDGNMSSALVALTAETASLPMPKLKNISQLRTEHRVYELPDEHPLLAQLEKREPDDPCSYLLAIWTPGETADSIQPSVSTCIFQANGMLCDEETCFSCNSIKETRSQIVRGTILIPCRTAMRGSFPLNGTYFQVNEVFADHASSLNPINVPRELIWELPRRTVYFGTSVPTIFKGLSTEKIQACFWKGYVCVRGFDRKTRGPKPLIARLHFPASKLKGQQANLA
Description: two-hybrid; yeast two-hybrid, pDEST 22 (AD) and pDEST 32 (BD); growth on SD-L/T/H media. The note with it: remark: other sources report otherwise.

Test [2] concerns the target T2, ROS1 (full length) fused with split luciferase (Arabidopsis thaliana), Q9SJQ6.
T2 chain: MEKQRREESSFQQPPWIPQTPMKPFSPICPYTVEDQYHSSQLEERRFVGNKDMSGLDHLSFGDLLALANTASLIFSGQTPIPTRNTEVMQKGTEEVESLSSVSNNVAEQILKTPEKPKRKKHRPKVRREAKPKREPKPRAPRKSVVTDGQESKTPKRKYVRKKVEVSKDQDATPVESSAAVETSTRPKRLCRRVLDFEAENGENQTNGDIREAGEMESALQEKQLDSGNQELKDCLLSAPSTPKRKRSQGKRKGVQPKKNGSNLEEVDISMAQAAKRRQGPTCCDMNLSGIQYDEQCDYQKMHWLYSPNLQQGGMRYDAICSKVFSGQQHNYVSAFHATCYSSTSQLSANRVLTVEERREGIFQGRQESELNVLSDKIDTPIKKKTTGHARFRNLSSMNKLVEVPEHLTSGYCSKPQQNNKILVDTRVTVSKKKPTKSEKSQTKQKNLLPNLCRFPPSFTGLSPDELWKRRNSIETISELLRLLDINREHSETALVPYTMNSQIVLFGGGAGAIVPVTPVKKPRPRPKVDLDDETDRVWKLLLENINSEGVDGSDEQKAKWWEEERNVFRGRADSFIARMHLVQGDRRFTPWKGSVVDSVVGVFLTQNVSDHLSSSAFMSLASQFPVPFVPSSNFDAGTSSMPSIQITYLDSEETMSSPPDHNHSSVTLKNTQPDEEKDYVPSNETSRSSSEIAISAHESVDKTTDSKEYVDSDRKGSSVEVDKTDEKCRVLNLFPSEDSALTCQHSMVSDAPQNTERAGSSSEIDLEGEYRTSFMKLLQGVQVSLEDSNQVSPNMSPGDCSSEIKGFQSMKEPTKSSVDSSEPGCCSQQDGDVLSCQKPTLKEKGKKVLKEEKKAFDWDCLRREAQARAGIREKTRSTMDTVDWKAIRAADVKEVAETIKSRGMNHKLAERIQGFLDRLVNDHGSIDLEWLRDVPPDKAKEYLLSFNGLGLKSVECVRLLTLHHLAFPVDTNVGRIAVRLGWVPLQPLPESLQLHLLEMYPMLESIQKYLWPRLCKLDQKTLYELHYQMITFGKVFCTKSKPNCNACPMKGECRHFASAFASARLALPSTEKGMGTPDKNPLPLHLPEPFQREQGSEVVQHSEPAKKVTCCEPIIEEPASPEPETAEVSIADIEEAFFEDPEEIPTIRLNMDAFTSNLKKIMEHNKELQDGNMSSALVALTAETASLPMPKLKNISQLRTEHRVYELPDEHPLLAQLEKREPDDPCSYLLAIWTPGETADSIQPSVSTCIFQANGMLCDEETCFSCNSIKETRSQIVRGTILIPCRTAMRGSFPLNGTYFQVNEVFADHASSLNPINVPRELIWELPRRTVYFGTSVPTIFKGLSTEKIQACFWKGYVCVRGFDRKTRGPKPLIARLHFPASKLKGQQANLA
Description: split reporter; split luciferase, constructs co-transfected into Arabidopsis protoplasts, overnight incubation; empty vectors as negative control; CCD camera. The note with it: remark: other sources report otherwise.

No constants are given. Whether binding was seen depends on the method and setting. For some assays here: In cells and extracts the contact can be indirect. Some results given as binding are weak or reduced against the parent protein; the word gives no strength. Where a sequence is shown, tags or fusion partners need not be part of it.

B1: AE7 in the AD vector, Q9C9G6 1-157 (protein)
chain: MVSGLINENPIIYPKKERRLRTDTSITDELTPEPIDQLEIFDHIRDIKDPEHPNTLEDLRVVTEDSVEVDDENSYVRVTFTPTVEHCSMATVIGLCVRVKLLRSLPSRYKIDIRVAPGSHATEDALNKQLNDKERVAAALENPNLVEMVDECLPSEE
As for B1, the binding result in test [1] is recorded as “binds”.

B2: AE7 fused with split luciferase, Q9C9G6 1-157 (protein)
chain: MVSGLINENPIIYPKKERRLRTDTSITDELTPEPIDQLEIFDHIRDIKDPEHPNTLEDLRVVTEDSVEVDDENSYVRVTFTPTVEHCSMATVIGLCVRVKLLRSLPSRYKIDIRVAPGSHATEDALNKQLNDKERVAAALENPNLVEMVDECLPSEE
For B2, in test [2], the binding entry is “binds”.

Source of the values: PMC4619598.
